Measurements reported in the supplement of paper PMC12823440, “Inhibitors supercharge kinase turnover through native proteolytic circuits” (Nature, 2025).
Structures can show the parent of a compound that is named as a salt. Some of the results follow. Hit calls seldom repeat between salt and free forms of one compound.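 Kinases, fused to nanoluciferase, were expressed in K562 cells; luminescence was measured every 4 h from 2 to 18 h as percent of control (DMSO = 100%, positive control = 0%). A time point is decreased if signal falls significantly (2 sigma). Hits were called by the authors by a rule that is not shown; the count of time points alone does not decide it.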

Amino acid sequences for entries named in this document (tags omitted). A change or cut given only in a name is not applied to a line headed by its entry.
UniProt P07949, whole entry, looked up: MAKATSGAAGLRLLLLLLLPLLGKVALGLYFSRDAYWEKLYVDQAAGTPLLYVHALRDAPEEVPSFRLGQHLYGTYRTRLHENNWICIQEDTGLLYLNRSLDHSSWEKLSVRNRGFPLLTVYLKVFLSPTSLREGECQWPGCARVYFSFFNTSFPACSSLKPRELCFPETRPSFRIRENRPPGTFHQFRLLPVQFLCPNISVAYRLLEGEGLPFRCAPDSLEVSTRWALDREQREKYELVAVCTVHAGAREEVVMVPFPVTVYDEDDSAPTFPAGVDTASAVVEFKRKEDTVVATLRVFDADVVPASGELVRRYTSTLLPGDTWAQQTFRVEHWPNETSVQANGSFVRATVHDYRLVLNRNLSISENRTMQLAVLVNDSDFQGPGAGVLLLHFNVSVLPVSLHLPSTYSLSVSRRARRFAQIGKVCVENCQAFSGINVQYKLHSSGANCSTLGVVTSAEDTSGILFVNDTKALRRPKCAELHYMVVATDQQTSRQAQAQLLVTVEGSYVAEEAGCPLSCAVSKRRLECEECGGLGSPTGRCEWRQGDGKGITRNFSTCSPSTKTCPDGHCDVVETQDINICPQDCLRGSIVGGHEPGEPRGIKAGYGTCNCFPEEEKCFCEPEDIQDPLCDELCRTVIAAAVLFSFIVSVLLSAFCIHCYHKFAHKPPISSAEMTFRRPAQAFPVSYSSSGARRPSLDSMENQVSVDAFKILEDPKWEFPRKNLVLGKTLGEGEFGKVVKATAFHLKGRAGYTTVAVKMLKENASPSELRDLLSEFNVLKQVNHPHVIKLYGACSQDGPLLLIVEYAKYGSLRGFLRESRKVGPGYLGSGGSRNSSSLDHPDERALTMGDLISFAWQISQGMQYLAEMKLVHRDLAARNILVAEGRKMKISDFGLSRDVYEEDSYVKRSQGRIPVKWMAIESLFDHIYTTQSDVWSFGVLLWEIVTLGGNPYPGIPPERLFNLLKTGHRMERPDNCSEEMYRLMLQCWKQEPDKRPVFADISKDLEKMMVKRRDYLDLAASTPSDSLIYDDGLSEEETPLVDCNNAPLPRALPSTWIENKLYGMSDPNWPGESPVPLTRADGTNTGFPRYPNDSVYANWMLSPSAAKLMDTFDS
UniProt P07949, whole entry M918T, looked up: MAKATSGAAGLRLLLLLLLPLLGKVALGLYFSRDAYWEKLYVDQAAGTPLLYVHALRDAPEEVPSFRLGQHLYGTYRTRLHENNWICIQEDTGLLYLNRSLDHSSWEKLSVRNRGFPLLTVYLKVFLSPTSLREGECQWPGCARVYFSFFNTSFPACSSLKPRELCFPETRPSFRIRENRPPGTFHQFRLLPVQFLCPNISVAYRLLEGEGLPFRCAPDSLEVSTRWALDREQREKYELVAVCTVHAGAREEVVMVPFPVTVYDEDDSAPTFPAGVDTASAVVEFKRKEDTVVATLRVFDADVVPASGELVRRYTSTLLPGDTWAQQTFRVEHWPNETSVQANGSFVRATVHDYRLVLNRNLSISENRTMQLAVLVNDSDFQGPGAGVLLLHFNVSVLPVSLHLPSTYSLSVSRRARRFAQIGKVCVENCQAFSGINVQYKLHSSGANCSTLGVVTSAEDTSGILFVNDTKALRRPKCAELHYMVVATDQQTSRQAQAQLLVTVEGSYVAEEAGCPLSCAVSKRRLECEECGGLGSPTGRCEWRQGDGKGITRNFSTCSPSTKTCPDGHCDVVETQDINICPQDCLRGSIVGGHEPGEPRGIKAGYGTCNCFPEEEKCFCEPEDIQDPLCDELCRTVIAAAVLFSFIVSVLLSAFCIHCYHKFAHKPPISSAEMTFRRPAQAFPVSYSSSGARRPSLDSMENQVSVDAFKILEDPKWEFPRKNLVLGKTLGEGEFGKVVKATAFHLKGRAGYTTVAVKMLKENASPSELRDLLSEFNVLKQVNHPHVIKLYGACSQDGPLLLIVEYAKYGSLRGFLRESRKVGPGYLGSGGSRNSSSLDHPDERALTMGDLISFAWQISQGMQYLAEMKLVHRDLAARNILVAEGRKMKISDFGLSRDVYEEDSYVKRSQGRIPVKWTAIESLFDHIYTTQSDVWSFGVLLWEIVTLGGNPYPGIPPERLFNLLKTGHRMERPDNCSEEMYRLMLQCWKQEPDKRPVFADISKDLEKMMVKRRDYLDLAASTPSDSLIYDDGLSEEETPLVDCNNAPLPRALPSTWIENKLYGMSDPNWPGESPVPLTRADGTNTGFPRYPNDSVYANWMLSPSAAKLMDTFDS
UniProt Q9BRS2: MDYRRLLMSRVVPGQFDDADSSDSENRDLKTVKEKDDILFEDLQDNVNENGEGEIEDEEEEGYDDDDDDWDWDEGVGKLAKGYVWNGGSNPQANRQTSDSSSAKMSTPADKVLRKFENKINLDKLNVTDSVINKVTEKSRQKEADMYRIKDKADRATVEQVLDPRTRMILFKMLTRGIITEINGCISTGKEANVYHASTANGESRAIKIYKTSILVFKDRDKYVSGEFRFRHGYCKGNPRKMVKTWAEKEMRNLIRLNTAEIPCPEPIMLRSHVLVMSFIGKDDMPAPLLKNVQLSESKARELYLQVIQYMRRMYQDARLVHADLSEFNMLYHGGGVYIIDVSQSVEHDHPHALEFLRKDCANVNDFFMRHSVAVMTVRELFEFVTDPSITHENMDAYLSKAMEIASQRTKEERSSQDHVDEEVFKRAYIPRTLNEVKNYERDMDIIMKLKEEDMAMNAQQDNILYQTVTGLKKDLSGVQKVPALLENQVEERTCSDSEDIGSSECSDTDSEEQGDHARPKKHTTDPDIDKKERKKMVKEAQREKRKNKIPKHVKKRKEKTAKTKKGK
UniProt Q13546: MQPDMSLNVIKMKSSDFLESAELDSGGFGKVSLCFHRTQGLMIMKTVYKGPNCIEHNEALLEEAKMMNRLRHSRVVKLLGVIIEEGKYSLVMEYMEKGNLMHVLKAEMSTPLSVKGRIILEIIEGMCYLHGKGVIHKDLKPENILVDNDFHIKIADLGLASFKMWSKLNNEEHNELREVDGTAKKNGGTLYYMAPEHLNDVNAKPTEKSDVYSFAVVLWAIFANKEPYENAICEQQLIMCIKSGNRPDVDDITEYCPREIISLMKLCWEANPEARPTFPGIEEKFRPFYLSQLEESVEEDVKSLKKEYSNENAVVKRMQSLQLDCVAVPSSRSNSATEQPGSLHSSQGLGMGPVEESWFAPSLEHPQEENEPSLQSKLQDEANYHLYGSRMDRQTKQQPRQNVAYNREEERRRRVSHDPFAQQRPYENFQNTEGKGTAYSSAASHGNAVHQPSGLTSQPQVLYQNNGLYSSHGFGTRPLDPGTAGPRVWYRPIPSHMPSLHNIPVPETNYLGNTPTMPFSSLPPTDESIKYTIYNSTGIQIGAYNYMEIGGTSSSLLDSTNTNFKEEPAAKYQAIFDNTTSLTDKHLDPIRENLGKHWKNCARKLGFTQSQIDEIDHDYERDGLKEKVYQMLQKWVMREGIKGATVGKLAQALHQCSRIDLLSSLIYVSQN
UniProt Q01974, whole entry: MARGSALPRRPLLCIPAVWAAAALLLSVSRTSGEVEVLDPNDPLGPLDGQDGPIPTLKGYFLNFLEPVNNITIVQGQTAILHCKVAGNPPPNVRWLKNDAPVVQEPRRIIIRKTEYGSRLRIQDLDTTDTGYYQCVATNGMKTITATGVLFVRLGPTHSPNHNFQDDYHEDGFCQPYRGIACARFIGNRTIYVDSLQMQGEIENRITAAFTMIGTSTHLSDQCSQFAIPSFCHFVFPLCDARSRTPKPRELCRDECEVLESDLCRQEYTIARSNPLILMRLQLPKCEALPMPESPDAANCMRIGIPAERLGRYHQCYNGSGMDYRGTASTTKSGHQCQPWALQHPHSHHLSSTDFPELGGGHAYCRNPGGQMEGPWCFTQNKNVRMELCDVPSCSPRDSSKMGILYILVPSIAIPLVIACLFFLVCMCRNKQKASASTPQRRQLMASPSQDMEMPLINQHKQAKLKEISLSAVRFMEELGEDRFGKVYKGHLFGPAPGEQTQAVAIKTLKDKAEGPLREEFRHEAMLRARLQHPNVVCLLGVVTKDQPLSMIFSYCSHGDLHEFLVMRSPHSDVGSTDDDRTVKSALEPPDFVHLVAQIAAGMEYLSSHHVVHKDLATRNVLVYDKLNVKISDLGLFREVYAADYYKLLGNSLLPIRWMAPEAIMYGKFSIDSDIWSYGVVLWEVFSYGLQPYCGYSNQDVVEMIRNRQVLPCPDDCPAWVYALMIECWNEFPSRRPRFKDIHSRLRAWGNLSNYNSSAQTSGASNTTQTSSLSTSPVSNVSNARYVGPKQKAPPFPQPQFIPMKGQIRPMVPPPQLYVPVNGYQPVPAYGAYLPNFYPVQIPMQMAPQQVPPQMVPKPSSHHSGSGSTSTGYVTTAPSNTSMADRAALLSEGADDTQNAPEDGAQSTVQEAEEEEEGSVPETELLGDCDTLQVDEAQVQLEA
UniProt Q15418, whole entry: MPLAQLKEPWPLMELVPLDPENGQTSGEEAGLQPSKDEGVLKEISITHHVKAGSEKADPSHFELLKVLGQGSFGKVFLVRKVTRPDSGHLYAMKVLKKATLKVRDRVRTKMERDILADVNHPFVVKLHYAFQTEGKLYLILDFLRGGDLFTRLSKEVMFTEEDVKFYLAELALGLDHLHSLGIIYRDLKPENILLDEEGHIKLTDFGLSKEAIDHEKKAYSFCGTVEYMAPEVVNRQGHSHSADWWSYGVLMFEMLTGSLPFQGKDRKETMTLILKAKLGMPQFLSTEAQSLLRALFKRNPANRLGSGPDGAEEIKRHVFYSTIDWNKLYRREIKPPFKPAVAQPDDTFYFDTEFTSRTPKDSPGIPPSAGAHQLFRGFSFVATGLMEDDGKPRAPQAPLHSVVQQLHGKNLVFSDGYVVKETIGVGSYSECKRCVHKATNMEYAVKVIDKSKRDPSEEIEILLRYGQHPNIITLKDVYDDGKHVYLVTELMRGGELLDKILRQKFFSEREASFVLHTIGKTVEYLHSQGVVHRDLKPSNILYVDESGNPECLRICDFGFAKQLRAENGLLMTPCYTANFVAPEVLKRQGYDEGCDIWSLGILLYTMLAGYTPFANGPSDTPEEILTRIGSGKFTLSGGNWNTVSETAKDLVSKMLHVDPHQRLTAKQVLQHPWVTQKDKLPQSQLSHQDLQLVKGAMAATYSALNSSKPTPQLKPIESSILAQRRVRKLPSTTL
UniProt Q9NYA1, whole entry: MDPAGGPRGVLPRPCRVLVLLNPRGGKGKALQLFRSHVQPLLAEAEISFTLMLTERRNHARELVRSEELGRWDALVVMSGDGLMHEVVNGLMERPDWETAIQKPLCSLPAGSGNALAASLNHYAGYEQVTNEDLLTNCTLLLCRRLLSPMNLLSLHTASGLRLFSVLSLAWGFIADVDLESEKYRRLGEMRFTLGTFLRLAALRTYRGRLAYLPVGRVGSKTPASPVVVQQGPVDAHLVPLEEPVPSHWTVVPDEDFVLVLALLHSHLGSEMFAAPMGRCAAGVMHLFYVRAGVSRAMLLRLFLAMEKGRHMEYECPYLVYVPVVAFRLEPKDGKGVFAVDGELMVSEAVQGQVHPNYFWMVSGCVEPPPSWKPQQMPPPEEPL
UniProt Q9Y6E0: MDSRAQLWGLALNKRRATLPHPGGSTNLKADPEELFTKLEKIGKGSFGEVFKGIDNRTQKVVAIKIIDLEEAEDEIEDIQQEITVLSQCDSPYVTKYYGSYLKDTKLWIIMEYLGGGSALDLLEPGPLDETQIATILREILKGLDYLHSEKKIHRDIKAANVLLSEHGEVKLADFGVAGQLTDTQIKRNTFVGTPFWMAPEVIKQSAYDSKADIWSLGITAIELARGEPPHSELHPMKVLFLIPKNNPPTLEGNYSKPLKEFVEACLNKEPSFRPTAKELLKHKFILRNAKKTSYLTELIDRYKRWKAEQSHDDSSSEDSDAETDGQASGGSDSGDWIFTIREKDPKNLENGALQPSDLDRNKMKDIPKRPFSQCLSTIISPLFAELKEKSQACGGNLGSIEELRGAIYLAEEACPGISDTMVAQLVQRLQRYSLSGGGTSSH

Columns and labels:
Assay in all cases: kinase-Nluc reporter destabilization hit call (1 = scored as downregulated) (binary); higher = compound decreases kinase abundance
Conditions in all cases: K562; 2-18 h
[1] = biological target: RET (UniProt P07949)
[2] = biological target: RET_M918T (clone: RET_mut) (UniProt P07949)
[3] = biological target: RIOK1 (UniProt Q9BRS2)
[4] = biological target: RIPK1 (UniProt Q13546)
[5] = biological target: RIPK2 (UniProt O43353)
[6] = biological target: ROR2 (UniProt Q01974)
[7] = biological target: RPS6KA1 (UniProt Q15418)
[8] = biological target: SPHK1 (UniProt Q9NYA1)
[9] = biological target: SRC (UniProt P12931)
[10] = biological target: STK24 (UniProt Q9Y6E0)

Measured: kinase-Nluc reporter destabilization hit call

Nc1ncnc2c1c(-c1ccc(Oc3ccccc3)cc1)nn2C1CCCNC1 (racemic) (2.5 µM)
inactive: [1] 0 | [2] 0 | [3] 0 | [4] 0 | [5] 0 | [6] 0 | [7] 0 | [8] 0 | [9] 0 | [10] 0

Cn1cnc(-c2cc3nccc(Oc4ccc(NC(=S)NC(=O)Cc5ccccc5)cc4F)c3s2)c1 [MGCD-265 analog] (10 µM)
inactive: [1] 0 | [2] 0 | [3] 0 | [4] 0 | [5] 0 | [6] 0 | [7] 0 | [8] 0 | [9] 0 | [10] 0

COc1ccc(CC(=O)Nc2nc3c(s2)CCc2ccccc2-3)cc1OC (10 µM)
inactive: [1] 0 | [2] 0 | [3] 0 | [4] 0 | [5] 0 | [6] 0 | [7] 0 | [8] 0 | [9] 0 | [10] 0

CCc1cc(O)c(F)cc1-c1ccc2c(-c3nc4c([nH]3)CN(C3CCN(C)CC3)CC4)n[nH]c2c1 [JAK-IN-5 (hydrochloride)] (2 µM)
inactive: [1] 0 | [2] 0 | [3] 0 | [4] 0 | [5] 0 | [6] 0 | [7] 0 | [8] 0 | [9] 0 | [10] 0

CC(C)NC(=O)N1CC[C@H](NC2=Nc3cc(F)ccc3N(CC(F)F)c3ccc(Cl)cc32)C1 (10 µM)
inactive: [1] 0 | [2] 0 | [3] 0 | [4] 0 | [5] 0 | [6] 0 | [7] 0 | [8] 0 | [9] 0 | [10] 0

Cc1ccc(NC(=S)NNc2c([N+](=O)[O-])cc(C(F)(F)F)cc2[N+](=O)[O-])cc1Cl (10 µM)
inactive: [1] 0 | [2] 0 | [3] 0 | [4] 0 | [5] 0 | [6] 0 | [7] 0 | [8] 0 | [9] 0 | [10] 0

CNC(=O)c1ccc(-c2cnc3cnc(C(=O)N(C)c4ccc(Cl)cc4)cn23)cc1 (2.5 µM)
inactive: [1] 0 | [2] 0 | [3] 0 | [4] 0 | [5] 0 | [6] 0 | [7] 0 | [8] 0 | [9] 0 | [10] 0

CC(C)CN(CC(=O)N1CCN(CC(OCc2ccc3ccccc3c2)c2ccc(Cl)cc2Cl)CC1)CC(C)C (stereo not given) [LYN-1604 (dihydrochloride)] (2.5 µM)
inactive: [1] 0 | [2] 0 | [3] 0 | [4] 0 | [5] 0 | [6] 0 | [7] 0 | [8] 0 | [9] 0 | [10] 0

CCOc1ccc(C(=O)Nc2ncc([N+](=O)[O-])s2)cc1 (10 µM)
inactive: [1] 0 | [2] 0 | [3] 0 | [4] 0 | [5] 0 | [6] 0 | [7] 0 | [8] 0 | [9] 0 | [10] 0

O=C1c2ccc(Nc3ccc(F)cc3F)cc2CCc2ccc(OC[C@H](O)CO)cc21 [Skepinone-L] (2.5 µM)
inactive: [1] 0 | [2] 0 | [3] 0 | [4] 0 | [5] 0 | [6] 0 | [7] 0 | [8] 0 | [9] 0 | [10] 0

N#Cc1ccc2ncnc(NC3CCC(N4CCOCC4)CC3)c2c1 (stereo not given) (10 µM)
inactive: [1] 0 | [2] 0 | [3] 0 | [4] 0 | [5] 0 | [6] 0 | [7] 0 | [8] 0 | [9] 0 | [10] 0

COC1(C(=O)N2Cc3nc(Cl)nc(N[C@H](C)c4cc(N)cc(C(F)(F)F)c4)c3C2)CCOCC1 (10 µM)
inactive: [1] 0 | [2] 0 | [3] 0 | [4] 0 | [5] 0 | [6] 0 | [7] 0 | [8] 0 | [9] 0 | [10] 0

COc1cc(S(C)(=O)=O)ccc1Nc1nc2ccc(-c3ccc(NC(=O)[C@H](C)c4ccc(F)cc4)cc3)cn2n1 [Empesertib] (10 µM)
inactive: [1] 0 | [2] 0 | [3] 0 | [4] 0 | [5] 0 | [6] 0 | [7] 0 | [8] 0 | [9] 0 | [10] 0

C=CC(=O)Nc1ccc(CN(C(=O)Nc2c(Cl)c(OC)cc(OC)c2Cl)c2cc(Nc3ccc(N4CCN(C)CC4)cc3)ncn2)cc1 (10 µM)
inactive: [1] 0 | [2] 0 | [3] 0 | [4] 0 | [5] 0 | [6] 0 | [7] 0 | [8] 0 | [9] 0 | [10] 0

COc1cc2ncn(-c3cc(OCc4ccccc4S(C)(=O)=O)c(C#N)s3)c2cc1OC (10 µM)
inactive: [1] 0 | [2] 0 | [3] 0 | [4] 0 | [5] 0 | [6] 0 | [7] 0 | [8] 0 | [9] 0 | [10] 0

C#CCN(C)C(=O)CCNc1nc(N2CCN(C(=O)C=C)CC2)c2cc(Cl)c(-c3c(O)cccc3F)c(F)c2n1 [ARS-1323-alkyne] (2.5 µM)
inactive: [1] 0 | [2] 0 | [3] 0 | [4] 0 | [5] 0 | [6] 0 | [7] 0 | [8] 0 | [9] 0 | [10] 0

CN(CCNc1ccc2ncc(-c3ccc(C(N)=O)cc3)n2n1)C(=O)OC(C)(C)C (10 µM)
inactive: [1] 0 | [2] 0 | [3] 0 | [4] 0 | [5] 0 | [6] 0 | [7] 0 | [8] 0 | [9] 0 | [10] 0

C=CC(=O)Nc1cccc(C)c1Nc1ncc2cc(-c3c(Cl)c(OC)cc(OC)c3Cl)ccc2n1 (2.5 µM)
inactive: [1] 0 | [2] 0 | [3] 0 | [4] 0 | [5] 0 | [6] 0 | [7] 0 | [8] 0 | [9] 0 | [10] 0

C=C(C)C(=O)Nc1cccc(-c2ncnc3[nH]cc(C(=O)OCC)c23)c1 (10 µM)
inactive: [1] 0 | [2] 0 | [3] 0 | [4] 0 | [5] 0 | [6] 0 | [7] 0 | [8] 0 | [9] 0 | [10] 0

COc1cc2c[n+](C)c3c4cc5c(cc4ccc3c2cc1OC)OCO5 [Nitidine (chloride)] (2 µM)
inactive: [1] 0 | [2] 0 | [3] 0 | [4] 0 | [5] 0 | [6] 0 | [7] 0 | [8] 0 | [9] 0 | [10] 0

CC(=NNC(=O)c1ccc(C)c(Br)c1)c1ccc(O)cc1O [mTOR inhibitor-1] (2.5 µM)
inactive: [1] 0 | [2] 0 | [3] 0 | [4] 0 | [5] 0 | [6] 0 | [7] 0 | [8] 0 | [9] 0 | [10] 0

O=C(Nc1ccc(F)cc1F)[C@H](NC(=S)Nc1cc(C(F)(F)F)cc(C(F)(F)F)c1)c1ccccc1 (2.5 µM)
inactive: [1] 0 | [2] 0 | [3] 0 | [4] 0 | [5] 0 | [6] 0 | [7] 0 | [8] 0 | [9] 0 | [10] 0

CC(C)CC1(O)CCN(C(=O)c2ccc(NS(=O)(=O)c3cccc4nccnc34)cc2)CC1 (10 µM)
inactive: [1] 0 | [2] 0 | [3] 0 | [4] 0 | [5] 0 | [6] 0 | [7] 0 | [8] 0 | [9] 0 | [10] 0

COc1cc2ncnc(Nc3cccc(Cl)c3)c2cc1OC (10 µM)
inactive: [1] 0 | [2] 0 | [3] 0 | [4] 0 | [5] 0 | [6] 0 | [7] 0 | [8] 0 | [9] 0 | [10] 0

COc1ccc(C(=O)Nc2sc3c(c2C(N)=O)CCCC3)cc1OC (10 µM)
inactive: [1] 0 | [2] 0 | [3] 0 | [4] 0 | [5] 0 | [6] 0 | [7] 0 | [8] 0 | [9] 0 | [10] 0

COc1cc(F)c(F)c(Nc2ccc(I)cc2F)c1NS(=O)(=O)C1(C[C@H](O)CO)CC1 [Refametinib] (10 µM)
inactive: [1] 0 | [2] 0 | [3] 0 | [4] 0 | [5] 0 | [6] 0 | [7] 0 | [8] 0 | [9] 0 | [10] 0

O=C(NCCCNc1nc(Nc2cccc(NC(=O)N3CCCC3)c2)ncc1I)c1cccs1 (2.5 µM)
inactive: [1] 0 | [2] 0 | [3] 0 | [4] 0 | [5] 0 | [6] 0 | [7] 0 | [8] 0 | [9] 0 | [10] 0

O=C(Nc1nc2ccccc2[nH]1)c1cccc(-n2cccc2)c1 (10 µM)
inactive: [1] 0 | [2] 0 | [3] 0 | [4] 0 | [5] 0 | [6] 0 | [7] 0 | [8] 0 | [9] 0 | [10] 0

Fetched by structure from the entries so far, two records:
C=CC(=O)Nc1ccc(CN(C(=O)Nc2c(Cl)c(OC)cc(OC)c2Cl)c2cc(Nc3ccc(N4CCN(C)CC4)cc3)ncn2)cc1 (10 µM)
inactive: [1] 0 | [2] 0 | [3] 0 | [4] 0 | [5] 0 | [6] 0 | [7] 0 | [8] 0 | [9] 0 | [10] 0

CNC(=O)c1ccc(-c2cnc3cnc(C(=O)N(C)c4ccc(Cl)cc4)cn23)cc1 (2.5 µM)
inactive: [1] 0 | [2] 0 | [3] 0 | [4] 0 | [5] 0 | [6] 0 | [7] 0 | [8] 0 | [9] 0 | [10] 0

Later entries

CO[C@H]1C[C@@H]2CC[C@@H](C)[C@@](O)(O2)C(=O)C(=O)N2CCCC[C@H]2C(=O)O[C@H]([C@H](C)C[C@@H]2CC[C@@H](O)[C@H](OC)C2)CC(=O)[C@H](C)/C=C(\C)[C@@H](O)[C@@H](OC)C(=O)[C@H](C)C[C@H](C)/C=C/C=C/C=C/1C [Rapamycin] (10 µM)
inactive: [1] 0 | [2] 0 | [3] 0 | [4] 0 | [5] 0 | [6] 0 | [7] 0 | [8] 0 | [9] 0 | [10] 0

Cc1c(CN2CCN(S(C)(=O)=O)CC2)sc2c(N3CCOCC3)nc(-c3cnc(N)nc3)nc12 (2.5 µM)
inactive: [1] 0 | [2] 0 | [3] 0 | [4] 0 | [5] 0 | [6] 0 | [7] 0 | [8] 0 | [9] 0 | [10] 0

CCn1c(-c2nonc2N)nc2cnc(Oc3cccc(NC(=O)c4ccc(OCCN5CCOCC5)cc4)c3)cc21 (10 µM)
inactive: [1] 0 | [2] 0 | [3] 0 | [4] 0 | [5] 0 | [6] 0 | [7] 0 | [8] 0 | [9] 0 | [10] 0

O=c1cc(O)cc(/C=C/c2ccc(O)c(O)c2)o1 [Hispidin] (10 µM)
inactive: [1] 0 | [2] 0 | [3] 0 | [4] 0 | [5] 0 | [6] 0 | [7] 0 | [8] 0 | [9] 0 | [10] 0

CC(C)=CC[C@H](O)C1=CC(=O)c2c(O)ccc(O)c2C1=O [(-)-Alkannin] (2.5 µM)
inactive: [1] 0 | [2] 0 | [3] 0 | [4] 0 | [5] 0 | [6] 0 | [7] 0 | [8] 0 | [9] 0 | [10] 0
